Source: patent US10905586B2, “Methods and devices for drug delivery to ocular tissue using microneedle” (Emory University, priority 2006, dated 2021)

Assay: Injection of model compound into suprachoroidal space of pig eyes ex vivo with hollow microneedle

## CCN(CC)c1ccc2c(-c3ccc(S(=O)(=O)O)cc3S(=O)(=O)[O-])c3ccc(=[N+](CC)CC)cc-3oc2c1 [sulforhodamine B, Sulforhodamine B]
Pig eye ex vivo, 35 μL, brightfield image
  Location of injected solution after infusion: just below the sclera and above the choroid in the suprachoroidal space
Pig eyes ex vivo, single hollow microneedle
  Volumes able to be injected without leakage: up to 35 μL
